Reference: ChEMBL document CHEMBL3997852, “Discovery of Fluorine-Containing Benzoxazinyl-oxazolidinones for the Treatment of Multidrug Resistant Tuberculosis” (ACS Med Chem Lett, 2017)

By UniProt entry, the sequences of proteins in these tests, tags left out. Where a name states a change or a piece, a line headed by the entry shows the natural chain unless it says otherwise.
UniProt Q12809: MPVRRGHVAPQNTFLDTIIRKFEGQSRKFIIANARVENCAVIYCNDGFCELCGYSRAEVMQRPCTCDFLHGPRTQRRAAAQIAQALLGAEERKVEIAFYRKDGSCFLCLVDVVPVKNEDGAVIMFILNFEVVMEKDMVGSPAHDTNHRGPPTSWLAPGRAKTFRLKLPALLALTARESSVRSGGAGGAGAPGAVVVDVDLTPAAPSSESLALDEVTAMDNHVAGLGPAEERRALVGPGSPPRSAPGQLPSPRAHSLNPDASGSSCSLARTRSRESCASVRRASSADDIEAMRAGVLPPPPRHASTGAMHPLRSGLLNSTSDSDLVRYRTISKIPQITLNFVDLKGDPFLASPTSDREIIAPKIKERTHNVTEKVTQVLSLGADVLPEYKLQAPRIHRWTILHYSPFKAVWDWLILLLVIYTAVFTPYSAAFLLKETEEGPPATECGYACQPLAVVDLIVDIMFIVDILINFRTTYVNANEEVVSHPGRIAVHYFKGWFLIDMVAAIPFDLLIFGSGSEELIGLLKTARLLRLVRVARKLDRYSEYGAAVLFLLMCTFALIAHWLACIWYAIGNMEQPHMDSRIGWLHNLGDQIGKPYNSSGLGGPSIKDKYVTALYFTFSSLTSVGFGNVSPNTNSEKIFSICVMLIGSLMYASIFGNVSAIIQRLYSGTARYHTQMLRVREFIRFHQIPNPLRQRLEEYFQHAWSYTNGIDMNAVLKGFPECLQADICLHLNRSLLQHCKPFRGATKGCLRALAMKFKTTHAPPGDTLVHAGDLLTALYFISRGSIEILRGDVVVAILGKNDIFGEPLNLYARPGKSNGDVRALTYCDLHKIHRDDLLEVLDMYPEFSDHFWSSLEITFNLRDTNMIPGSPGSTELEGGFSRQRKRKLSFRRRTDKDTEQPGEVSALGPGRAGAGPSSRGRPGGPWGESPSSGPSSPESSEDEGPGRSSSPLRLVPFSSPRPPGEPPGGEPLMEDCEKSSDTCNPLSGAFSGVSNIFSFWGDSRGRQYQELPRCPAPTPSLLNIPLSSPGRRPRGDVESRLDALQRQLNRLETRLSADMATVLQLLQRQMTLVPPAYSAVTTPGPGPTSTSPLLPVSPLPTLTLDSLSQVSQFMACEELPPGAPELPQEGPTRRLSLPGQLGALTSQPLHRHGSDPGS

Molecular target: Voltage-gated inwardly rectifying potassium channel KCNH2 (Homo sapiens, UniProt Q12809)

CC(=O)NC[C@@H]1OC(=O)N2c3cc(F)c(C4=CCN(C(=O)CO)CC4)cc3OC[C@@H]12
IC50: > 30 µM
